{"source": "PubChem BioAssay AID504764 | Drosophila RNAi Screening Center – 2011", "test": "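Knock-downs that raise or lower a Notch target reporter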 (primary screen)", "cells": "Drosophila Kc167 cells", "knock-down reagent": "long dsRNA against Drosophila genes", "timing": "about 5 days (4 days dsRNA, then 24 h after transfection)", "challenge": "transfection of constitutively active membrane-tethered Notch lacking the extracellular domain, read 24 h later", "detection": "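Light from a Notch-responsive E(spl)m3 luciferase reporter under active Notch, with control-promoter and no-Notch reporter wells to normalise; raw counts from paired wells a and b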", "scale": "induced reporter light, run 1, well a and induced reporter light, run 1, well b: higher = more light from the Notch target reporter with active Notch; control promoter light, run 1, well a and control promoter light, run 1, well b: higher = more light from the viral control promoter (cell number, transfection, viability); uninduced reporter light, run 1, well a: higher = more light from the Notch target reporter without active Notch", "rule for the call": "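Wells with low control signal or poorly matching duplicates excluded; duplicates averaged; per source plate, z beyond ±2 for induced/control log2 ratio or beyond ±1.8 for induced/uninduced marks a hit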", "meaning of the calls": "active = modifier hit (raised or lowered Notch signal); inactive = not a hit", "note": "The screen tested about 22,000 reagents; this is an unselected part of those with a known target gene and a result. Of all reagents, 403 (1.9%) are marked active. 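Unnormalised raw counts per well; ratio z-scores behind the hit calls and whether each hit raises or lowers signal are not deposited.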 Entries without a mark were called inactive. Reagents against one gene are numbered here. Not given: the amount of reagent."}
{"Gene": "Mettl14", "reagent no.": 1, "induced reporter light, run 1, well a": 1.63e5, "induced reporter light, run 1, well b": 1.69e5, "control promoter light, run 1, well a": 2.06e5, "control promoter light, run 1, well b": 1.99e5, "uninduced reporter light, run 1, well a": 12995}
{"Gene": "CG31639", "reagent no.": 1, "induced reporter light, run 1, well a": 1.21e5, "induced reporter light, run 1, well b": 1.25e5, "control promoter light, run 1, well a": 1.58e5, "control promoter light, run 1, well b": 1.42e5, "uninduced reporter light, run 1, well a": 7790}
{"Gene": "CG3473", "reagent no.": 1, "induced reporter light, run 1, well a": 1.99e5, "induced reporter light, run 1, well b": 1.82e5, "control promoter light, run 1, well a": 1.67e5, "control promoter light, run 1, well b": 1.82e5, "uninduced reporter light, run 1, well a": 17700}
{"Gene": "eIF3h", "reagent no.": 1, "induced reporter light, run 1, well a": "20070 (active)", "induced reporter light, run 1, well b": 21292, "control promoter light, run 1, well a": 29635, "control promoter light, run 1, well b": 25955, "uninduced reporter light, run 1, well a": 2095}
{"Gene": "RpL4", "reagent no.": 1, "induced reporter light, run 1, well a": 15890, "induced reporter light, run 1, well b": 18465, "control promoter light, run 1, well a": 22180, "control promoter light, run 1, well b": 23710, "uninduced reporter light, run 1, well a": 1005}
{"Gene": "CG7878", "reagent no.": 1, "induced reporter light, run 1, well a": 81660, "induced reporter light, run 1, well b": 94095, "control promoter light, run 1, well a": 95575, "control promoter light, run 1, well b": 79620, "uninduced reporter light, run 1, well a": 7210}
{"Gene": "ENGase", "reagent no.": 1, "induced reporter light, run 1, well a": 1.65e5, "induced reporter light, run 1, well b": 1.95e5, "control promoter light, run 1, well a": 2.89e5, "control promoter light, run 1, well b": 2.61e5, "uninduced reporter light, run 1, well a": 12270}
{"Gene": "ENGase", "reagent no.": 2, "induced reporter light, run 1, well a": 44645, "induced reporter light, run 1, well b": 39515, "control promoter light, run 1, well a": 52010, "control promoter light, run 1, well b": 52520, "uninduced reporter light, run 1, well a": 6695}
{"Gene": "CG17593", "reagent no.": 1, "induced reporter light, run 1, well a": 1.75e5, "induced reporter light, run 1, well b": 1.67e5, "control promoter light, run 1, well a": 2.23e5, "control promoter light, run 1, well b": 2.29e5, "uninduced reporter light, run 1, well a": 9195}
{"Gene": "Pcd", "reagent no.": 1, "induced reporter light, run 1, well a": 1.19e5, "induced reporter light, run 1, well b": 1.04e5, "control promoter light, run 1, well a": 1.33e5, "control promoter light, run 1, well b": 1.49e5, "uninduced reporter light, run 1, well a": 10332}
{"Gene": "CG6425", "reagent no.": 1, "induced reporter light, run 1, well a": 1.58e5, "induced reporter light, run 1, well b": 1.69e5, "control promoter light, run 1, well a": 1.81e5, "control promoter light, run 1, well b": 1.86e5, "uninduced reporter light, run 1, well a": 12720}
{"Gene": "CG14131", "reagent no.": 1, "induced reporter light, run 1, well a": 1.21e5, "induced reporter light, run 1, well b": 1.12e5, "control promoter light, run 1, well a": 2.11e5, "control promoter light, run 1, well b": 1.83e5, "uninduced reporter light, run 1, well a": 5675}
